PubChem BioAssay AID272 (DTP/NCI, 2004)
The list does not hold the whole screen: it gathers some chemical classes. Other doses and runs of a compound may be missing. T/C gives the treated animals as a percentage of the vehicle group. Some entries show no survivor count and are marked so; the dose need not have been tolerated. Schedule codes are those of the source, taken here to give the interval after Q, in days (D) or hours (H), and the number of doses after X. Brackets with × say how often a value occurs here. Some doses were run more than once; the results are listed from low to high. Where survival is the endpoint, the PubChem record calls one and a half times the control and up active, and a quarter to a half above the control has no call in these data; cut-offs in other NCI protocols can differ.

Test system: Lewis lung carcinoma i.m., BDF1 mice, T/C %
Assay: NCI In Vivo Anticancer Drug Screen. Data for tumor model Lewis Lung Carcinoma (intramuscular) in B6D2F1 (BDF1) mice
Details: vehicle: saline
Description: The antitumor activity of compounds was measured in mice bearing transplantable tumors. Survival or tumor size were measured and the results are expressed as the measurement made in the treated group (T) divided by the measurement made in the vehicle treated control group (C). The tumor model used in this assay is Lewis Lung Carcinoma (intramuscular) in B6D2F1 (BDF1) mice

**Q.** Which T/C (T/C endpoint: mean tumor weight, dose: 0.03 mg/kg/injection, schedule: Q01DX009 (ip), evaluation day not shown, higher T/C = larger tumour) does the source give for `CN(CCCl)CCCl` here?
**A.** The T/C was 62 % of control [survivor count not shown] (2×).

**Q.** What about the T/C (T/C endpoint: mean tumor weight, dose: 0.05 mg/kg/injection, schedule: Q01DX009 (ip), evaluation day not shown, higher T/C = larger tumour) of the same molecule?
**A.** Its T/C is 100 % of control [survivor count not shown] (2×).

**Q.** What about the T/C (T/C endpoint: mean tumor weight, dose: 0.06 mg/kg/injection, schedule: Q01DX011 (ip), evaluation day not shown, higher T/C = larger tumour) of the same molecule?
**A.** The T/C was 52 [survivor count not shown], 76 [survivor count not shown], 154 % of control [survivor count not shown].

**Q.** And the T/C (T/C endpoint: mean tumor weight, dose: 0.08 mg/kg/injection, schedule: Q01DX009 (ip), evaluation day not shown, higher T/C = larger tumour)?
**A.** Its T/C is 44 % of control [survivor count not shown] (2×).

**Q.** And the T/C (T/C endpoint: mean tumor weight, dose: 0.13 mg/kg/injection, schedule: Q01DX011 (ip), evaluation day not shown, higher T/C = larger tumour)?
**A.** Its T/C is 52 [survivor count not shown], 54 [survivor count not shown], 129 % of control [survivor count not shown].

**Q.** What about the T/C (T/C endpoint: mean tumor weight, dose: 0.14 mg/kg/injection, schedule: Q01DX009 (ip), evaluation day not shown, higher T/C = larger tumour) of the same molecule?
**A.** The T/C was 69 % of control [survivor count not shown] (2×).

**Q.** What about the T/C (T/C endpoint: mean tumor weight, dose: 0.24 mg/kg/injection, schedule: Q01DX009 (ip), evaluation day not shown, higher T/C = larger tumour) of the same molecule?
**A.** Its T/C is 49 % of control [survivor count not shown] (2×).

**Q.** And the T/C (T/C endpoint: mean tumor weight, dose: 0.25 mg/kg/injection, schedule: Q01DX011 (ip), evaluation day not shown, higher T/C = larger tumour)?
**A.** Its T/C is 26 [survivor count not shown] and 86 % of control [survivor count not shown].

**Q.** What about the T/C (T/C endpoint: mean tumor weight, dose: 0.5 mg/kg/injection, schedule: Q01DX011 (ip), evaluation day not shown, higher T/C = larger tumour) of the same molecule?
**A.** Its T/C is 45 % of control [survivor count not shown].

**Q.** And the T/C (T/C endpoint: median survival time, dose: 0.05 mg/kg/injection, schedule: Q01DX009 (ip), higher T/C = longer survival)?
**A.** Its T/C is 89 [survivor count not shown] and 91 % of control [survivor count not shown].

**Q.** And the T/C (T/C endpoint: median survival time, dose: 0.06 mg/kg/injection, schedule: Q01DX011 (ip), higher T/C = longer survival)?
**A.** Its T/C is 94 [survivor count not shown], 101 [survivor count not shown], 103 % of control [survivor count not shown].

**Q.** And the T/C (T/C endpoint: median survival time, dose: 0.08 mg/kg/injection, schedule: Q01DX009 (ip), higher T/C = longer survival)?
**A.** Its T/C is 97 [survivor count not shown] and 104 % of control [survivor count not shown].

**Q.** What about the T/C (T/C endpoint: median survival time, dose: 0.12 mg/kg/injection, schedule: Q01DX011 (ip), higher T/C = longer survival) of the same molecule?
**A.** The T/C was 109 [survivor count not shown] and 121 % of control [survivor count not shown].

**Q.** What about the T/C (T/C endpoint: median survival time, dose: 0.13 mg/kg/injection, schedule: Q01DX011 (ip), higher T/C = longer survival) of the same molecule?
**A.** The T/C was 94 [survivor count not shown], 102 [survivor count not shown], 103 [survivor count not shown], 114 % of control [survivor count not shown].

**Q.** And the T/C (T/C endpoint: median survival time, dose: 0.14 mg/kg/injection, schedule: Q01DX009 (ip), higher T/C = longer survival)?
**A.** Its T/C is 117 [survivor count not shown] and 121 % of control [survivor count not shown].

**Q.** What about the T/C (T/C endpoint: median survival time, dose: 0.24 mg/kg/injection, schedule: Q01DX009 (ip), higher T/C = longer survival) of the same molecule?
**A.** Its T/C is 97 [survivor count not shown] and 104 % of control [survivor count not shown].

**Q.** What about the T/C (T/C endpoint: median survival time, dose: 0.25 mg/kg/injection, schedule: Q01DX011 (ip), higher T/C = longer survival) of the same molecule?
**A.** The T/C was 100 [survivor count not shown], 110 [survivor count not shown], 118 [survivor count not shown] (2×), 148 % of control [survivor count not shown].

**Q.** What about the T/C (T/C endpoint: median survival time, dose: 0.5 mg/kg/injection, schedule: Q01DX011 (ip), higher T/C = longer survival) of the same molecule?
**A.** The T/C was 88 % of control [survivor count not shown].
